In this assay the target is T1, Juno (UniProt Q9EQF4 20-222).
T1 chain: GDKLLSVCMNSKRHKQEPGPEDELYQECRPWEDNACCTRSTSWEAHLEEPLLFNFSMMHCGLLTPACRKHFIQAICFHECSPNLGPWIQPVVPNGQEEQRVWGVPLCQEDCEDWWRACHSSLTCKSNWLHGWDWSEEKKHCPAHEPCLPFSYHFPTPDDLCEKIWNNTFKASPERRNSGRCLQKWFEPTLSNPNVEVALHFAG
The assay can be described thus: MST; microscale thermophoresis of Juno with the Izumo1 ectodomain or Izumo1 peptides; n ≥ 3; conditions are in the supplement, not shown; both purified.

No constants are given. Whether binding was seen depends on the method and setting. Some entries that bind do so weakly or less than the wild type.

B1: Izumo1 ectodomain (domain or fragment)
chain: CIKCDQFVTDALKTFENTYLNDHLPHDIHKNVMRMVNHEVSSFGVVTSAEDSYLGAVDENTLEQATWSFLKDLKRITDSDLKGELFIKELLWMLRHQKDIFNNLARQFQKEVLCPNKCGVMSQTLIWCLKCEKQLHICRKSLDCGERHIEVHRSEDLVLDCLLSWHRASKGLTDYSFYRVWENSSETLIAKGKEPYLTKSMVGPEDAGNYRCVLDTINQGHATVIRYDVTVLPPKHSEENQPPNIITQEEHETPVHVTPQTPPGQEPESELYPELHPELYPELIPTVAQNPEKKMKTR
modifications: N-acetylglucosamine attached to N204 (seen in the crystal structure)
In the case of B1, the binding entry is listed as “binds”.

The values above are taken from publication PMC4963209 (2016).
